Binding data for four molecules are collected here from article PMC4464288.

Chains of the proteins cited; added tags and fusions are not shown.
UniProt P38432: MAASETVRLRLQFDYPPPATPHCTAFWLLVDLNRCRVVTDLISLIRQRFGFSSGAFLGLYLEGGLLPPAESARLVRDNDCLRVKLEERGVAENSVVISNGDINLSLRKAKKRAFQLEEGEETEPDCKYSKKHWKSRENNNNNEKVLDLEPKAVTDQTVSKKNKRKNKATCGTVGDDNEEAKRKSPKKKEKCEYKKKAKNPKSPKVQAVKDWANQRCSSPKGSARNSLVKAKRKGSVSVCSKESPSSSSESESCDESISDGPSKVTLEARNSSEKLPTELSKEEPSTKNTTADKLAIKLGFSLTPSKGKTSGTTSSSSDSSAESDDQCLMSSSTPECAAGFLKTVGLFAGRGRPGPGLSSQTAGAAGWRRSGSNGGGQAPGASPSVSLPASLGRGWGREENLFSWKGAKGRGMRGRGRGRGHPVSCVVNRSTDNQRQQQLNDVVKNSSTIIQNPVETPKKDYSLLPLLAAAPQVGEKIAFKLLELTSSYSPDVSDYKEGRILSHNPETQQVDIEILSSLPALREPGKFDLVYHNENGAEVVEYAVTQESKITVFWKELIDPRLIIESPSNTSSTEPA
UniProt P23804: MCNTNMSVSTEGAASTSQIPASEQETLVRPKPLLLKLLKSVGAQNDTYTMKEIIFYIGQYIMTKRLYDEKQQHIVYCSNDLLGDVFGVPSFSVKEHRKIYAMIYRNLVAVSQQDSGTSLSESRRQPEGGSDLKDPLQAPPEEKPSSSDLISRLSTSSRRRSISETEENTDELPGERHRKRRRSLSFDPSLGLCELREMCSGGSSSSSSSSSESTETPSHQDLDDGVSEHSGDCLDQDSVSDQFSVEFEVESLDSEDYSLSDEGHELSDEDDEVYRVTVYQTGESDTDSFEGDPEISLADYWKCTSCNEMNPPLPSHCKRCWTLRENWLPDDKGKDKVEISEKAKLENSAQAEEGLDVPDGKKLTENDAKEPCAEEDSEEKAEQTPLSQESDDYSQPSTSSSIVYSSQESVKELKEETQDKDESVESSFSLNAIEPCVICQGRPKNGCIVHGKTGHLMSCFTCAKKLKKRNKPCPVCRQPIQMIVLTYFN

Test [1] concerns the target coilin-myc (pCMV6-coilin-myc-DKK), transfected (human) (UniProt P38432). Briefly: co-IP; immunoprecipitation of transfected proteins: 1-2 mg total lysate with specific antibodies, then Gamma-Bind G Plus Sepharose overnight at 4 °C; lysis buffer 1% Triton X100, 200 mM NaCl, 5 mM EDTA, 50 mM Tris pH 8.0.
Test [2] has the same target. Described as above. This is another data set of the same source.
In test [3] the target is coilin, endogenous human (human (endogenous in HeLa)) (UniProt P38432). Briefly: co-IP; reciprocal immunoprecipitation of endogenous proteins from HeLa cell extract, non-synchronized cells; lysis buffer 1% Triton X100, 200 mM NaCl, 5 mM EDTA, 50 mM Tris pH 8.0; Gamma-Bind G Plus Sepharose, 4 °C.
Test [4] concerns the target coilin-myc (pCMV6-coilin-myc-DKK), transfected (human) (UniProt P38432). Briefly: pull-down; GST pull-down of transfected proteins: 1 mg total cell extract incubated with Glutathione-Sepharose beads for 6 hours, washed with lysis buffer.

Results are given in words; binding and its absence hold for the method and conditions named. Binding seen in cells or lysates may run through a third protein. Some entries that bind do so weakly or less than the wild type. For some assays here: Sequences can lack the tags named with a protein.

On to “Mdm2 (pCOC-Mdm2-X2), transfected (from UniProt P23804 1-489) (enzyme)”, for which the binding entry in test [1] is listed as “binds”.

B1: HA-RNF8, transfected (enzyme, UniProt O76064 1-485)
chain: MGEPGFFVTGDRAGGRSWCLRRVGMSAGWLLLEDGCEVTVGRGFGVTYQLVSKICPLMISRNHCVLKQNPEGQWTIMDNKSLNGVWLNRARLEPLRVYSIHQGDYIQLGVPLENKENAEYEYEVTEEDWETIYPCLSPKNDQMIEKNKELRTKRKFSLDELAGPGAEGPSNLKSKINKVSCESGQPVKSQGKGEVASTPSDNLDPKLTALEPSKTTGAPIYPGFPKVTEVHHEQKASNSSASQRSLQMFKVTMSRILRLKIQMQEKHEAVMNVKKQTQKGNSKKVVQMEQELQDLQSQLCAEQAQQQARVEQLEKTFQEEEQHLQGLEIAQGEKDLKQQLAQALQEHWALMEELNRSKKDFEAIIQAKNKELEQTKEEKEKMQAQKEEVLSHMNDVLENELQCIICSEYFIEAVTLNCAHSFCSYCINEWMKRKIECPICRKDIKSKTYSLVLDNCINKMVNNLSSEVKERRIVLIRERKAKRLF
With B1, in test [2], the binding entry is recorded as “no binding”.

B2: VRK1 (vaccinia-related kinase 1), endogenous human (enzyme, UniProt Q99986 1-396)
chain: MPRVKAAQAGRQSSAKRHLAEQFAVGEIITDMAKKEWKVGLPIGQGGFGCIYLADMNSSESVGSDAPCVVKVEPSDNGPLFTELKFYQRAAKPEQIQKWIRTRKLKYLGVPKYWGSGLHDKNGKSYRFMIMDRFGSDLQKIYEANAKRFSRKTVLQLSLRILDILEYIHEHEYVHGDIKASNLLLNYKNPDQVYLVDYGLAYRYCPEGVHKEYKEDPKRCHDGTIEFTSIDAHNGVAPSRRGDLEILGYCMIQWLTGHLPWEDNLKDPKYVRDSKIRYRENIASLMDKCFPEKNKPGEIAKYMETVKLLDYTEKPLYENLRDILLQGLKAIGSKDDGKLDLSVVENGGLKAKTITKKRKKEIEESKEPGVEDTEWSNTQTEEAIQTRSRTRKRVQK
As for B2, the binding result in test [3] is “binds”.

B3: VRK1, transfected (enzyme, UniProt Q99986 1-396)
chain: MPRVKAAQAGRQSSAKRHLAEQFAVGEIITDMAKKEWKVGLPIGQGGFGCIYLADMNSSESVGSDAPCVVKVEPSDNGPLFTELKFYQRAAKPEQIQKWIRTRKLKYLGVPKYWGSGLHDKNGKSYRFMIMDRFGSDLQKIYEANAKRFSRKTVLQLSLRILDILEYIHEHEYVHGDIKASNLLLNYKNPDQVYLVDYGLAYRYCPEGVHKEYKEDPKRCHDGTIEFTSIDAHNGVAPSRRGDLEILGYCMIQWLTGHLPWEDNLKDPKYVRDSKIRYRENIASLMDKCFPEKNKPGEIAKYMETVKLLDYTEKPLYENLRDILLQGLKAIGSKDDGKLDLSVVENGGLKAKTITKKRKKEIEESKEPGVEDTEWSNTQTEEAIQTRSRTRKRVQK
With B3, the binding result in test [4] and in test [2] was “binds” throughout.
